This continues a long series; more values of the same kind are listed elsewhere.
Experiments:
Assay type in all cases: functional
Aspergillus fumigatus [1] = assay: Induction of change in CipC-like antibiotic response protein, putative protein level in iTRAQ-116 labelled secreted fraction of drug-susceptible Aspergillus fumigatus KU80 delta-akuB at 0.12 ug/ml after 48 hrs in YPD medium by MS (MS/MS) analysis relative to control
Aspergillus fumigatus [2] = assay: Induction of change in antigenic mitochondrial protein HSP60, putative protein level in iTRAQ-116 labelled secreted fraction of drug-susceptible Aspergillus fumigatus KU80 delta-akuB at 0.12 ug/ml after 48 hrs in YPD medium by MS (MS/MS) analysis relative to control
Aspergillus fumigatus [3] = assay: Induction of change in cytosolic large ribosomal subunit protein L30 gene expression in drug-susceptible Aspergillus fumigatus KU80 delta-akuB at 0.12 ug/ml after 24 hrs in YPD medium by microarray analysis relative to control
Aspergillus fumigatus [4] = assay: Induction of change in cytosolic small ribosomal subunit protein S12 gene expression in drug-susceptible Aspergillus fumigatus KU80 delta-akuB at 0.12 ug/ml after 24 hrs in YPD medium by microarray analysis relative to control
Aspergillus fumigatus [5] = assay: Induction of change in Mn superoxide dismutase MnSOD protein level in iTRAQ114 labelled secreted fraction of drug-susceptible Aspergillus fumigatus KU80 delta-akuB at 0.12 ug/ml after 24 hrs in YPD medium by MS (MS/MS) analysis relative to control
Aspergillus fumigatus [6] = assay: Induction of change in 60s ribosomal protein l2 protein level in iTRAQ114 labelled secreted fraction of drug-susceptible Aspergillus fumigatus KU80 delta-akuB at 0.12 ug/ml after 24 hrs in YPD medium by MS (MS/MS) analysis relative to control
Aspergillus fumigatus [7] = assay: Induction of change in Ctr copper transporter family gene expression in drug-susceptible Aspergillus fumigatus KU80 delta-akuB at 0.12 ug/ml after 24 hrs in YPD medium by microarray analysis relative to control
Aspergillus fumigatus [8] = assay: Induction of change in ribosomal protein S8 protein level in iTRAQ114 labelled secreted fraction of drug-susceptible Aspergillus fumigatus KU80 delta-akuB at 0.12 ug/ml after 24 hrs in YPD medium by MS (MS/MS) analysis relative to control
Aspergillus fumigatus [9] = assay: Induction of change in cell wall glucanase, putative protein level in iTRAQ-116 labelled secreted fraction of drug-susceptible Aspergillus fumigatus KU80 delta-akuB at 0.12 ug/ml after 48 hrs in YPD medium by MS (MS/MS) analysis relative to control
Aspergillus fumigatus [10] = assay: Induction of change in cytosolic large ribosomal subunit protein L30 protein level in iTRAQ114 labelled cell wall fraction of drug-susceptible Aspergillus fumigatus KU80 delta-akuB at 0.12 ug/ml after 24 hrs in YPD medium by MS (MS/MS) analysis relative to control
Aspergillus fumigatus [11] = assay: Induction of change in C2H2 transcription factor (Seb1), putative, putative gene expression in drug-susceptible Aspergillus fumigatus KU80 delta-akuB at 0.12 ug/ml after 48 hrs in YPD medium by microarray analysis relative to control
Aspergillus fumigatus [12] = assay: Induction of change in conserved hypothetical gene locus AFUA_8G00970 expression in drug-susceptible Aspergillus fumigatus KU80 delta-akuB at 0.12 ug/ml after 48 hrs in YPD medium by microarray analysis relative to control
Aspergillus fumigatus [13] = assay: Induction of change in hypothetical gene locus AFUA_6G02020 expression in drug-susceptible Aspergillus fumigatus KU80 delta-akuB at 0.12 ug/ml after 48 hrs in YPD medium by microarray analysis relative to control
Aspergillus fumigatus [14] = assay: Induction of change in 60S ribosomal protein P0 protein level in iTRAQ114 labelled cell wall fraction of drug-resistant Aspergillus fumigatus EMFR-S678P at 0.12 ug/ml after 24 hrs in YPD medium by MS (MS/MS) analysis relative to control
Aspergillus fumigatus [15] = assay: Induction of change in BYS1 domain protein, putative protein level in iTRAQ-116 labelled cell wall fraction of drug-resistant Aspergillus fumigatus EMFR-S678P at 0.12 ug/ml after 48 hrs in YPD medium by MS (MS/MS) analysis relative to control
Aspergillus fumigatus [16] = assay: Induction of change in aconitate hydratase, mitochondrial protein level in iTRAQ-116 labelled cell wall fraction of drug-susceptible Aspergillus fumigatus KU80 delta-akuB at 0.12 ug/ml after 48 hrs in YPD medium by MS (MS/MS) analysis relative to control
Aspergillus fumigatus [17] = assay: Induction of change in thioredoxin protein level in iTRAQ-118 labelled cell wall fraction of drug-resistant Aspergillus fumigatus EMFR-S678P at 0.12 ug/ml after 24 hrs in YPD medium by MS (MS/MS) analysis relative to control
Aspergillus fumigatus [18] = assay: Induction of change in 4-hydroxyphenylpyruvate dioxygenase, putative protein level in iTRAQ-116 labelled secreted fraction of drug-resistant Aspergillus fumigatus EMFR-S678P at 0.12 ug/ml after 48 hrs in YPD medium by MS (MS/MS) analysis relative to control
Aspergillus fumigatus [19] = assay: Induction of change in PT repeat family protein level in iTRAQ-116 labelled secreted fraction of drug-resistant Aspergillus fumigatus EMFR-S678P at 0.12 ug/ml after 48 hrs in YPD medium by MS (MS/MS) analysis relative to control
Aspergillus fumigatus [20] = assay: Induction of change in FKBP-type peptidyl-prolyl isomerase, putative protein level in iTRAQ-116 labelled secreted fraction of drug-resistant Aspergillus fumigatus EMFR-S678P at 0.12 ug/ml after 48 hrs in YPD medium by MS (MS/MS) analysis relative to control
Aspergillus fumigatus [21] = assay: Induction of change in major allergen and cytotoxin AspF1 protein level in iTRAQ-116 labelled secreted fraction of drug-resistant Aspergillus fumigatus EMFR-S678P at 0.12 ug/ml after 48 hrs in YPD medium by MS (MS/MS) analysis relative to control
Aspergillus fumigatus [22] = assay: Induction of change in allergen Asp F4 protein level in iTRAQ114 labelled secreted fraction of drug-susceptible Aspergillus fumigatus KU80 delta-akuB at 0.12 ug/ml after 24 hrs in YPD medium by MS (MS/MS) analysis relative to control
Aspergillus fumigatus [23] = assay: Induction of change in allergen Asp F4 protein level in iTRAQ-118 labelled cell wall fraction of drug-susceptible Aspergillus fumigatus KU80 delta-akuB at 0.12 ug/ml after 24 hrs in YPD medium by MS (MS/MS) analysis relative to control
Aspergillus fumigatus [24] = assay: Induction of change in extracellular cell wall glucanase Crf1/allergen Asp F9 protein level in iTRAQ-118 labelled cell wall fraction of drug-susceptible Aspergillus fumigatus KU80 delta-akuB at 0.12 ug/ml after 24 hrs in YPD medium by MS (MS/MS) analysis relative to control

With `CC[C@H](C)C[C@H](C)CCCCCCCCC(=O)N[C@H]1C[C@@H](O)[C@@H](NCCN)NC(=O)[C@@H]2[C@@H](O)CCN2C(=O)[C@H]([C@H](O)CCN)NC(=O)[C@H]([C@H](O)[C@@H](O)c2ccc(O)cc2)NC(=O)[C@@H]2C[C@@H](O)CN2C(=O)[C@H]([C@@H](C)O)NC1=O` [CASPOFUNGIN] the “fold change (FC)” value (Aspergillus fumigatus [1]) was -3, the “fold change (FC)” value (Aspergillus fumigatus [2]) was -2.6 and the “fold change (FC)” value (Aspergillus fumigatus [3]) was 4.6. For the same compound, the “fold change (FC)” value (Aspergillus fumigatus [4]) was 4.9, the “fold change (FC)” value (Aspergillus fumigatus [5]) was -1.6 and the “fold change (FC)” value (Aspergillus fumigatus [6]) was -1.1. The “fold change (FC)” value (Aspergillus fumigatus [7]) was -5, the “fold change (FC)” value (Aspergillus fumigatus [8]) was 1.1 and the “fold change (FC)” value (Aspergillus fumigatus [9]) was -1.3. For the same compound, the “fold change (FC)” value (Aspergillus fumigatus [10]) was 1.6, the “fold change (FC)” value (Aspergillus fumigatus [11]) was -2.7 and the “fold change (FC)” value (Aspergillus fumigatus [12]) was -2.6. For the same compound, the “fold change (FC)” value (Aspergillus fumigatus [13]) was -2, the “fold change (FC)” value (Aspergillus fumigatus [14]) was -1.23 and the “fold change (FC)” value (Aspergillus fumigatus [15]) was 1.23. The “fold change (FC)” value (Aspergillus fumigatus [16]) was 1.2, the “fold change (FC)” value (Aspergillus fumigatus [17]) was 1.15 and the “fold change (FC)” value (Aspergillus fumigatus [18]) was -1.07. For the same compound, the “fold change (FC)” value (Aspergillus fumigatus [19]) was -1.15, the “fold change (FC)” value (Aspergillus fumigatus [20]) was -1.32 and the “fold change (FC)” value (Aspergillus fumigatus [21]) was -1.15. The “fold change (FC)” value (Aspergillus fumigatus [22]) was 2.3, the “fold change (FC)” value (Aspergillus fumigatus [23]) was -4.3 and the “fold change (FC)” value (Aspergillus fumigatus [24]) was -3.
